The test system of one data set is COS-7 cells. As to the kind of experiment: Intracellular localization by PylRS immunostaining and tRNA^Pyl FISH in COS-7 cells. It is filed as cell-based. The following applies: COS-7, one day after transfection, anti-PylRS immunostaining / FISH.
A further data set concerns HEK293T cells. As to the kind of experiment: Intracellular localization by PylRS immunostaining and tRNA^Pyl FISH in HEK293T cells. It counts as cell-based. As to conditions: one day after transfection, anti-PylRS immunostaining / FISH.

B1: PylRS^AF: mutant M. mazei pyrrolysyl tRNA synthetase comprising amino acid substitutions Y306A and Y384F, SEQ ID NO:2 (protein)
chain: MDKKPLNTLISATGLWMSRTGTIHKIKHHEVSRSKIYIEMACGDHLVVNNSRSSRTARALRHHKYRKTCKRCRVSDEDLNKFLTKANEDQTSVKVKVVSAPTRTKKAMPKSVARAPKPLENTEAAQAQPSGSKFSPAIPVSTQESVSVPASVSTSISSISTGATASALVKGNTNPITSMSAPVQASAPALTKSQTDRLEVLLNPKDEISLNSGKPFRELESELLSRRKKDLQQIYAEERENYLGKLEREITRFFVDRGFLEIKSPILIPLEYIERMGIDNDTELSKQIFRVDKNFCLRPMLAPNLANYLRKLDRALPDPIKIFEIGPCYRKESDGKEHLEEFTMLNFCQMGSGCTRENLESIITDFLNHLGIDFKIVGDSCMVFGDTLDVMHGDLELSSAVVGPIPLDREWGIDKPWIGAGFGLERLLKVKHDFKNIKRAARSESYYNGISTNL
modifications: Methanosarcina mazei PylRS Y306A, Y384F mutant; MUTAGEN 306 Y306A mutation; MUTAGEN 384 Y384F mutation
As to B1, the intracellular localization result in the data set with COS-7 cells and in the data set on HEK293T cells was “localized predominantly in the nucleus” each time.

(Values after patent publication US12723243B2, “Archaeal pyrrolysyl tRNA synthetases for orthogonal use” (European Molecular Biology Laboratory, priority 2016, dated 2026).)
